Values of other authors as cited in patent US20210395652A1, “TEXTILE TREATMENT COMPOSITIONS” (priority 2020, published 2021).
For at least one compound, name, drawing or mass did not settle the structure.

Test system: bacteria
Settings: in one hour; coatings 0.2 to 1.1 wt %; species not disclosed; cited from earlier work

In the case of `CCCCCCCCCCCCCCCCCC[N+](C)(C)CCC[Si](OC)(OC)OC.[Cl-]` [Dimethyloctadecyl 3-trimethoxysilyl propyl chloride], the efficacy against bacteria is given as 95%.
